Experiments:
Format in all cases: in vivo
[1] = Body weight, plasma cholesterol and triglyceride after nasal administration (LDL-RD mice); conditions: END, intranasal 10 μg/mouse every other day for 5 days, then Western diet, median
[2] = Body weight, plasma cholesterol and triglyceride after oral administration (LDL-RD mice); conditions: mean ± S.E
[3] = Body weight, plasma cholesterol and triglyceride after intraperitoneal immunization (LDL-RD mice); conditions: head 100 μg
[4] = Body weight, plasma cholesterol and triglyceride after oral administration (ApoE-KO mice); conditions: ApoE-KO mice
[5] = Body weight, plasma cholesterol and triglyceride after nasal administration (ApoE-KO mice); conditions: mean ± S.E
[6] = End, intraperitoneal with incomplete Freund's adjuvant, mean ± S.E
[7] = End, intraperitoneal with incomplete Freund's adjuvant, median
[8] = Time 0, intraperitoneal immunization groups, mean ± S.E
[9] = second weight line (End), intraperitoneal with incomplete Freund's adjuvant, mean ± S.E
[10] = Time 0, nasal 10 μg/mouse groups

Substance | Cholesterol ([2]; End, oral 100 μg) | Triglyceride ([2]; End, oral 100 μg) | Weight ([2]; End, oral 100 μg) | Cholesterol ([2]; Time 0, oral 100 μg groups) | Triglyceride ([2]; Time 0, oral 100 μg groups) | Weight ([2]; Time 0, oral 100 μg groups) | Cholesterol [3, 6] | Triglyceride [3, 7] | Cholesterol [3, 8] | Triglyceride [3, 8] | Weight [3, 8] | Weight [3, 9] | further results
HSP-65: recombinant mycobacterial heat shock protein HSP 65 |  |  |  |  |  |  |  |  |  |  |  |  | Triglyceride [1]: 288 mg/dL
SCKVPVKKATVVYQGERVKIQ [Peptide S-3] | 1172 ± 67 mg/dL | 282 ± 29 mg/dL | 27.76 ± 0.7 g | 241 ± 9 mg/dL | 283 ± 31 mg/dL | 19.6 ± 0.7 g | 1385 ± 123 mg/dL | 459 mg/dL | 201 ± 12 mg/dL | 78 ± 18 mg/dL | 19.9 ± 0.9 g | 29.2 ± 0.9 g | 
MLHGDKVSFFCKNKEKKCSYT [Peptide S-4] | 1181 ± 63 mg/dL | 345 ± 51 mg/dL | 26.6 ± 0.7 g | 243 ± 11 mg/dL | 243 ± 31 mg/dL | 20.0 ± 0.7 g | 1267 ± 59 mg/dL | 321 mg/dL | 194 ± 10 mg/dL | 68 ± 6 mg/dL | 20.0 ± 1.0 g | 28.8 ± 1.3 g | Cholesterol ([4]; End, oral 50 μg, 5 doses): 414 ± 20 mg/dL; Triglyceride ([4]; End, oral 50 μg, 5 doses): 107 ± 4 mg/dL; Weight ([4]; End, oral 50 μg, 5 doses): 25.4 ± 0.9 g; Cholesterol ([4]; Time 0, oral 50 μg groups): 384 ± 18 mg/dL; Triglyceride ([4]; Time 0, oral 50 μg groups): 85 ± 5 mg/dL; Weight ([4]; Time 0, oral 50 μg groups): 24.8 ± 0.9 g; Cholesterol ([5]; End, nasal 10 μg/mouse): 323 ± 25 mg/dL; Triglyceride ([5]; End, nasal 10 μg/mouse): 117 ± 7 mg/dL; Weight ([5]; End, nasal 10 μg/mouse): 25.7 ± 0.5 g; Cholesterol [5, 10]: 356 ± 12 mg/dL; Triglyceride [5, 10]: 66 ± 5 mg/dL; Weight [5, 10]: 20.5 ± 0.4 g
VCPFAGILENGAVRYTTFEY [Peptide S-1] | 1104 ± 55 mg/dL | 274 ± 33 mg/dL | 28.0 ± 0.7 g | 244 ± 12 mg/dL | 238 ± 36 mg/dL | 20.6 ± 0.7 g | 1380 ± 74 mg/dL | 417 mg/dL | 192 ± 11 mg/dL | 67 ± 8 mg/dL | 20.7 ± 1.2 g | 32.5 ± 0.8 g | 
ECLPQHAMFGNDTITCTTHGN [Peptide S-2] | 1148 ± 71 mg/dL | 382 ± 54 mg/dL | 26.8 ± 1.2 g | 244 ± 14 mg/dL | 260 ± 28 mg/dL | 20.0 ± 0.7 g | 1289 ± 89 mg/dL | 576 mg/dL | 196 ± 9 mg/dL | 80 ± 8 mg/dL | 20.2 ± 1.2 g | 30.5 ± 0.7 g | 

— US20090068207A1, “Compositions Containing Beta 2-Glycoprotein I-Derived Peptides for the Prevention and/or Treatment of Vascular Disease” (Vascular Biogenics Ltd., priority 2005, published 2009)
